## Results from one PubChem assay

The results are deposited in PubChem (AID504749; NCATS, 2011).

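Malaria parasite (P. falciparum) lines kept in red blood cells; parasite DNA is measured by SYBR Green fluorescence after lysis, 72 h after compound addition.
Each compound was titrated across a series from about 0.000037 to 29 µM.
The number is the fitted AC50, the concentration giving a half-maximal change in signal; a lower value means higher potency, whether the curve shows a decrease or an increase.
Calls follow the curve class and fit quality: every row here is inconclusive, covering signal-raising curves and weak, poorly fitted, partial or highest-dose-only inhibition curves.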

Values are in nM.
All entries here are filed as inconclusive.
These entries are mostly ones the record files as inconclusive; other results of the assay are not listed here.
A potency from a partial, single-point or poor curve is only a rough figure.
The first word of each remark tells which way the curve ran; it can be opposite to the aim of the assay.

compound | condition | fitted potency (nM) | curve as filed
CCN(CC)CCOc1ccc(C(O)(Cc2ccc(Cl)cc2)c2ccc(C)cc2)cc1 (stereo not given) | PC49 | 17782 | inhibitor, single point
CCN(CC)CCOc1ccc(C(O)(Cc2ccc(Cl)cc2)c2ccc(C)cc2)cc1 (stereo not given) | CP315 | 19011 | inhibitor, single point
CCN(CC)CCOc1ccc(C(O)(Cc2ccc(Cl)cc2)c2ccc(C)cc2)cc1 (stereo not given) | PC26 | 19011 | inhibitor, single point
CCN(CC)CCOc1ccc(C(O)(Cc2ccc(Cl)cc2)c2ccc(C)cc2)cc1 (stereo not given) | HB3 | 17782 | inhibitor, single point
CCN(CC)CCOc1ccc(C(O)(Cc2ccc(Cl)cc2)c2ccc(C)cc2)cc1 (stereo not given) | PC15 | 12589 | inhibitor, single point
CCN(CC)CCOc1ccc(C(O)(Cc2ccc(Cl)cc2)c2ccc(C)cc2)cc1 (stereo not given) | CP329 | 19011 | inhibitor, single point
CCN(CC)CCOc1ccc(C(O)(Cc2ccc(Cl)cc2)c2ccc(C)cc2)cc1 (stereo not given) | N140 | 17782 | inhibitor, single point
CCN(CC)CCOc1ccc(C(O)(Cc2ccc(Cl)cc2)c2ccc(C)cc2)cc1 (stereo not given) | TAB109 | 11220 | inhibitor, single point
CCN(CC)CCOc1ccc(C(O)(Cc2ccc(Cl)cc2)c2ccc(C)cc2)cc1 (stereo not given) | SC27B | 17782 | inhibitor, single point
CCN(CC)CCOc1ccc(C(O)(Cc2ccc(Cl)cc2)c2ccc(C)cc2)cc1 (stereo not given) | CP266 | 19011 | inhibitor, single point
CCN(CC)CCOc1ccc(C(O)(Cc2ccc(Cl)cc2)c2ccc(C)cc2)cc1 (stereo not given) | CP305 | 19011 | inhibitor, single point
CCN(CC)CCOc1ccc(C(O)(Cc2ccc(Cl)cc2)c2ccc(C)cc2)cc1 (stereo not given) | PAD | 17782 | inhibitor, single point
CCN(CC)CCOc1ccc(C(O)(Cc2ccc(Cl)cc2)c2ccc(C)cc2)cc1 (stereo not given) | P94_40 | 17782 | inhibitor, single point
CCN(CC)CCOc1ccc(C(O)(Cc2ccc(Cl)cc2)c2ccc(C)cc2)cc1 (stereo not given) | CP325 | 19011 | inhibitor, single point
CCN(CC)CCOc1ccc(C(O)(Cc2ccc(Cl)cc2)c2ccc(C)cc2)cc1 (stereo not given) | TAB113 | 11220 | inhibitor, single point
CCN(CC)CCOc1ccc(C(O)(Cc2ccc(Cl)cc2)c2ccc(C)cc2)cc1 (stereo not given) | DFO2036 | 11220 | inhibitor, single point
Cc1onc(-c2c(F)cccc2Cl)c1C(=O)N[C@@H]1C(=O)N2[C@H]1SC(C)(C)[C@H]2C(=O)O | CP315 | 2133 | inhibitor, single point
Cc1onc(-c2c(F)cccc2Cl)c1C(=O)N[C@@H]1C(=O)N2[C@H]1SC(C)(C)[C@H]2C(=O)O | CP262 | 19011 | activator, partial curve, poor fit
Cc1onc(-c2c(F)cccc2Cl)c1C(=O)N[C@@H]1C(=O)N2[C@H]1SC(C)(C)[C@H]2C(=O)O | CP335 | 4256 | inhibitor, single point
C[C@]12CC[C@H]3c4ccc(O)cc4CC[C@@H]3[C@H]1CC[C@@H]2OC(=O)CCC1CCCC1 | P93_24 | 15848 | inhibitor, single point
C[C@]12CC[C@H]3c4ccc(O)cc4CC[C@@H]3[C@H]1CC[C@@H]2OC(=O)CCC1CCCC1 | CP191 | 11220 | inhibitor, single point
C[C@]12CC[C@H]3c4ccc(O)cc4CC[C@@H]3[C@H]1CC[C@@H]2OC(=O)CCC1CCCC1 | HB3 | 11220 | inhibitor, single point
C[C@]12CC[C@H]3c4ccc(O)cc4CC[C@@H]3[C@H]1CC[C@@H]2OC(=O)CCC1CCCC1 | TAB113 | 15848 | inhibitor, single point
C[C@]12CC[C@H]3c4ccc(O)cc4CC[C@@H]3[C@H]1CC[C@@H]2OC(=O)CCC1CCCC1 | ATS189 | 10000 | inhibitor, partial curve
C[C@]12CC[C@H]3c4ccc(O)cc4CC[C@@H]3[C@H]1CC[C@@H]2OC(=O)CCC1CCCC1 | CP335 | 13459 | inhibitor, single point
C[C@]12CC[C@H]3c4ccc(O)cc4CC[C@@H]3[C@H]1CC[C@@H]2OC(=O)CCC1CCCC1 | CP265 | 10000 | inhibitor, single point
C[C@]12CC[C@H]3c4ccc(O)cc4CC[C@@H]3[C@H]1CC[C@@H]2OC(=O)CCC1CCCC1 | CP260 | 15848 | inhibitor, single point
C[C@]12CC[C@H]3c4ccc(O)cc4CC[C@@H]3[C@H]1CC[C@@H]2OC(=O)CCC1CCCC1 | CP286 | 15848 | inhibitor, single point
C[C@]12CC[C@H]3c4ccc(O)cc4CC[C@@H]3[C@H]1CC[C@@H]2OC(=O)CCC1CCCC1 | TAB165 | 15848 | inhibitor, single point
C[C@]12CC[C@H]3c4ccc(O)cc4CC[C@@H]3[C@H]1CC[C@@H]2OC(=O)CCC1CCCC1 | PC26 | 19011 | inhibitor, single point
C[C@]12CC[C@H]3c4ccc(O)cc4CC[C@@H]3[C@H]1CC[C@@H]2OC(=O)CCC1CCCC1 | ECU | 11220 | inhibitor, single point
C[C@]12CC[C@H]3c4ccc(O)cc4CC[C@@H]3[C@H]1CC[C@@H]2OC(=O)CCC1CCCC1 | DIV30 | 16944 | inhibitor, partial curve, poor fit
C[C@]12CC[C@H]3c4ccc(O)cc4CC[C@@H]3[C@H]1CC[C@@H]2OC(=O)CCC1CCCC1 | 3D7 | 11220 | inhibitor, single point
Cc1c2oc3c(C)ccc(C(=O)N[C@@H]4C(=O)N[C@H](C(C)C)C(=O)N5CCC[C@H]5C(=O)N(C)CC(=O)N(C)[C@@H](C(C)C)C(=O)O[C@@H]4C)c3nc-2c(C(=O)N[C@@H]2C(=O)N[C@H](C(C)C)C(=O)N3CCC[C@H]3C(=O)N(C)CC(=O)N(C)[C@@H](C(C)C)C(=O)O[C@@H]2C)c(N)c1=O | JCK | 15.8 | inhibitor, full curve, poor fit
Cc1c2oc3c(C)ccc(C(=O)N[C@@H]4C(=O)N[C@H](C(C)C)C(=O)N5CCC[C@H]5C(=O)N(C)CC(=O)N(C)[C@@H](C(C)C)C(=O)O[C@@H]4C)c3nc-2c(C(=O)N[C@@H]2C(=O)N[C@H](C(C)C)C(=O)N3CCC[C@H]3C(=O)N(C)CC(=O)N(C)[C@@H](C(C)C)C(=O)O[C@@H]2C)c(N)c1=O | CP265 | 7.1 | inhibitor, full curve, poor fit
Cc1c2oc3c(C)ccc(C(=O)N[C@@H]4C(=O)N[C@H](C(C)C)C(=O)N5CCC[C@H]5C(=O)N(C)CC(=O)N(C)[C@@H](C(C)C)C(=O)O[C@@H]4C)c3nc-2c(C(=O)N[C@@H]2C(=O)N[C@H](C(C)C)C(=O)N3CCC[C@H]3C(=O)N(C)CC(=O)N(C)[C@@H](C(C)C)C(=O)O[C@@H]2C)c(N)c1=O | PC49 | 8912 | inhibitor, partial curve, poor fit
COc1ccccc1N1CCN(CCCC(=O)c2ccc(F)cc2)CC1 | DIV14 | 13459 | inhibitor, single point
COc1ccccc1N1CCN(CCCC(=O)c2ccc(F)cc2)CC1 | CP191 | 11220 | inhibitor, single point
CCn1cc(C(=O)O)c(=O)c2cc(F)c(N3CCNCC3)nc21 | ICS | 3162 | inhibitor, partial curve, poor fit
CCn1cc(C(=O)O)c(=O)c2cc(F)c(N3CCNCC3)nc21 | AA1029 | 11220 | inhibitor, partial curve, poor fit
CCn1cc(C(=O)O)c(=O)c2cc(F)c(N3CCNCC3)nc21 | CP266 | 1142 | activator, single point
CCn1cc(C(=O)O)c(=O)c2cc(F)c(N3CCNCC3)nc21 | TAB165 | 7080 | inhibitor, single point

Repeated from the top, 5 entries:

{"compound": "CCN(CC)CCOc1ccc(C(O)(Cc2ccc(Cl)cc2)c2ccc(C)cc2)cc1", "stereo": "stereo not given", "condition": "PC49", "fitted potency (nM)": "17782", "curve as filed": "inhibitor, single point"}
{"compound": "CCN(CC)CCOc1ccc(C(O)(Cc2ccc(Cl)cc2)c2ccc(C)cc2)cc1", "stereo": "stereo not given", "condition": "CP315", "fitted potency (nM)": "19011", "curve as filed": "inhibitor, single point"}
{"compound": "CCN(CC)CCOc1ccc(C(O)(Cc2ccc(Cl)cc2)c2ccc(C)cc2)cc1", "stereo": "stereo not given", "condition": "PC26", "fitted potency (nM)": "19011", "curve as filed": "inhibitor, single point"}
{"compound": "CCN(CC)CCOc1ccc(C(O)(Cc2ccc(Cl)cc2)c2ccc(C)cc2)cc1", "stereo": "stereo not given", "condition": "HB3", "fitted potency (nM)": "17782", "curve as filed": "inhibitor, single point"}
{"compound": "CCN(CC)CCOc1ccc(C(O)(Cc2ccc(Cl)cc2)c2ccc(C)cc2)cc1", "stereo": "stereo not given", "condition": "PC15", "fitted potency (nM)": "12589", "curve as filed": "inhibitor, single point"}